Test results published in PMC7819943, “Rice protein-binding microarrays: a tool to detect cis-acting elements near promoter regions in rice”.
The list shows a part of the results.

The chains behind the UniProt entries cited, without tags or fusion partners.
UniProt Q0JBA9, entry or part of it: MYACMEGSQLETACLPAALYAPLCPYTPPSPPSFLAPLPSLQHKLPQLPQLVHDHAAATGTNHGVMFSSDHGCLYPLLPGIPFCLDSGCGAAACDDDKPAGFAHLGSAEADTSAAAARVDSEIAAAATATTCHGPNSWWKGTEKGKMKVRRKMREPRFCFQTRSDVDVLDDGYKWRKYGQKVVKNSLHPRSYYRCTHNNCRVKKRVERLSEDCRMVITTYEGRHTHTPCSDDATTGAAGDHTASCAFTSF

target: OsWRKY34 (Oryza sativa, UniProt Q0JBA9 1-250); assay: protein-binding microarray (RPBM); PBS, 2% BSA, 51.3 ng/ul salmon testes DNA, 50 uM zinc acetate, 200 nM TF, 25 C, 1 h; high values mean tight binding; conditions: protein: recombinant; tags: N-terminal polyhistidine and DsRed monomer fusion (pET32a); label: CyDye5-dUTP incorporated in the synthesized complementary strand; 3' TTTTT single-stranded linker to array surface; dsDNA, one strand shown
Procedure, shortened: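 The binding signal for each feature is its fluorescence intensity in arbitrary units. An Axon 4000B scanner was used to read a custom Agilent array that had been made double-stranded with Cy5-dUTP primer extension, blocked with 2% BSA, incubated at 25 °C for 1 h with 200 nM protein in PBS, 2% BSA, salmon testes DNA and 50 µM zinc acetate, and washed. The protein was an N-terminal polyhistidine–DsRed transcription factor fusion from E. coli BL21-CodonPlus, purified on Ni–NTA.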

Row | Sequence | binding signal
1 | GTGGGTTGGGGTCGGCGAGGGATCCGGGCGGCGGGGTATGCGGAGTCACCTAGTGCAG | 14000 fluorescence intensity (a.u.)
2 | AGGAGTCGCGGCTGAACAGGGGAGGGGCGGCGATCGAGCACGGAGTCACCTAGTGCAG | 8810 fluorescence intensity (a.u.)
3 | CCTCTAGAGGCTCTTCCTTCACTCAGCCTCTCCAACGACGCGGAGTCACCTAGTGCAG | 8540 fluorescence intensity (a.u.)
4 | GCCCGGCCCATATTGGCCCACTAGAACCGTGGCCACTTTCCGGAGTCACCTAGTGCAG | 8330 fluorescence intensity (a.u.)
5 | AAGTCCTTAGCATGGCAACAACACCGTCCCACCACTCTCACGGAGTCACCTAGTGCAG | 8220 fluorescence intensity (a.u.)
6 | TGATGAGCCTGCTGTTTCAGCTGTCTGGTACTTGGTTGACCGGAGTCACCTAGTGCAG | 8540 fluorescence intensity (a.u.)
7 | CTTACTGAAATTTTGTCACCCAGTTTTGTTGAAACGATCCCGGAGTCACCTAGTGCAG | 8120 fluorescence intensity (a.u.)
8 | GCGGAGGTGGTGGTGGCCTTGGAGGAGGTGGCGGCGGAGGCGGAGTCACCTAGTGCAG | 14300 fluorescence intensity (a.u.)
9 | CGCCATCCGCCGCCCGCTCCTCCGCTCCGTCGCCTTCTCCCGGAGTCACCTAGTGCAG | 8620 fluorescence intensity (a.u.)
10 | TCAAAAGTCTACGTTTATATGCATTGTGTATTTGTGTGTTCGGAGTCACCTAGTGCAG | 8150 fluorescence intensity (a.u.)
11 | CAAAATTCGCGGCCTCCTATATAACGCCGTCTCGATCTCTCGGAGTCACCTAGTGCAG | 8140 fluorescence intensity (a.u.)
12 | AACACGATTAATACTTTATGCGTGACTTGTCTTTTTTAATCGGAGTCACCTAGTGCAG | 8740 fluorescence intensity (a.u.)
13 | CTTTATTTGATGGCCCACATTTGTTTTTCTTGTTTTGCTTCGGAGTCACCTAGTGCAG | 8740 fluorescence intensity (a.u.)
14 | GTCAAGCTAGCCCTTCTTGCTTGCTCCGTTCAACGCCTCTCGGAGTCACCTAGTGCAG | 8930 fluorescence intensity (a.u.)
15 | GTGCGTGTAAGTTTTGCCCTTTTTGTTTTTTTCTTCTGAGCGGAGTCACCTAGTGCAG | 8030 fluorescence intensity (a.u.)
16 | TCCGTGTCAAACCATTAACTTGTTTTTCCTTCCGTGTCAACGGAGTCACCTAGTGCAG | 10100 fluorescence intensity (a.u.)
17 | ACTGCCTTAAAATCCAGCGGTGGGACATTTTCGGGGTATACGGAGTCACCTAGTGCAG | 8160 fluorescence intensity (a.u.)
18 | GGTTGGGAGTTGGGGAGGAGGGGAGTTAGGCAAAGAGGAGCGGAGTCACCTAGTGCAG | 15100 fluorescence intensity (a.u.)
19 | CCGACAAATACTACCTCATGACCTTTTCTGCACTGTTTGTCGGAGTCACCTAGTGCAG | 10400 fluorescence intensity (a.u.)
20 | GAGTAAGATCCTGGATCTCTCCTTCTCGGCTTCTCTGTTTCGGAGTCACCTAGTGCAG | 9280 fluorescence intensity (a.u.)
21 | CCTCAACATTGCCGAAAATTTTTGTCCCTGTACGGTTCTACGGAGTCACCTAGTGCAG | 10700 fluorescence intensity (a.u.)

Row | Sequence | binding signal
22 | CTCCGCCGCCTCGCCCCTGCAGACCAGCAAATCACTCCAACGGAGTCACCTAGTGCAG | 10600 fluorescence intensity (a.u.)
23 | ATCGACTATAATTTTACATATTTATACTATATCTTTTAATCGGAGTCACCTAGTGCAG | 8910 fluorescence intensity (a.u.)
24 | ATTTGTTTTTACTTACTTGGCTTACTTCTTTCCAGTTAGACGGAGTCACCTAGTGCAG | 8240 fluorescence intensity (a.u.)
25 | GGTTTTGATGCCCGAATCCGGCCTTTTCTCTGTCTATTTCCGGAGTCACCTAGTGCAG | 11200 fluorescence intensity (a.u.)
26 | CCATCTCCGAGCTTCTTGTTGTTGTTGTTGTTGGTTTGGTCGGAGTCACCTAGTGCAG | 12000 fluorescence intensity (a.u.)
27 | GTTTGACCATTCGTCTTATTCAAAAAATTTACGTAATAATCGGAGTCACCTAGTGCAG | 8650 fluorescence intensity (a.u.)
28 | GGGCCTGTTCACTTTGATGTCATTTTCAACCTTACTAAATCGGAGTCACCTAGTGCAG | 10500 fluorescence intensity (a.u.)
29 | TGGGCCTTGCATGAGTTTGATTGACCCTATGGTCTGCGCACGGAGTCACCTAGTGCAG | 8540 fluorescence intensity (a.u.)
30 | TACATCTGATTTTTTTTTGTTTCTCCACACCCTGATTGTTCGGAGTCACCTAGTGCAG | 12000 fluorescence intensity (a.u.)
31 | TCCCAGCCTCCATCTCCATCCCCACGGGACCATTCAATCTCGGAGTCACCTAGTGCAG | 8790 fluorescence intensity (a.u.)
32 | GTAACCGTATTTCTGTTAAAATCCCGTGTTGTTTTTTATTCGGAGTCACCTAGTGCAG | 13300 fluorescence intensity (a.u.)
33 | GACGAGGTCAAACGTTTATTAAAAAGTCAACGGCGTCGTACGGAGTCACCTAGTGCAG | 11400 fluorescence intensity (a.u.)
34 | GACGCCGCCGCCGCCGCCGCCAGCCGCCACGTTATCCATGCGGAGTCACCTAGTGCAG | 9530 fluorescence intensity (a.u.)
35 | GTCGCGATCCTCTGCTTCTTCGTCGTCGACTGCACCTCCTCGGAGTCACCTAGTGCAG | 9880 fluorescence intensity (a.u.)
36 | ACGAATATATACTTCCACCATCTCAATTTTCGTAGATAATCGGAGTCACCTAGTGCAG | 8290 fluorescence intensity (a.u.)
37 | GCTGATGGTTTGTGTCGGGAGGGGAGGATTGAGGATGCTTCGGAGTCACCTAGTGCAG | 13700 fluorescence intensity (a.u.)
38 | CAAACGTACTCCTACTCTCCAAGCAGCCTATATAAACCACCGGAGTCACCTAGTGCAG | 8590 fluorescence intensity (a.u.)
39 | AGAGATTTGTTTGGTGAATGGTGATTTCTTCCTGTGATGACGGAGTCACCTAGTGCAG | 13300 fluorescence intensity (a.u.)
40 | GCTTTTACTCCAACTTGGGGATGGGGAGACATAGCAGATTCGGAGTCACCTAGTGCAG | 9350 fluorescence intensity (a.u.)
41 | CCACCTTGTATATTCTAGAGTTCCCAATTTTGCTTCATTTCGGAGTCACCTAGTGCAG | 8670 fluorescence intensity (a.u.)
42 | CTCACTCCTGGCGCCGGTGACCTCTCTGCCACTCCACCGGCGGAGTCACCTAGTGCAG | 8550 fluorescence intensity (a.u.)

From no. 27 as far as 29, copied from above:
Row | Sequence | binding signal
27 | GTTTGACCATTCGTCTTATTCAAAAAATTTACGTAATAATCGGAGTCACCTAGTGCAG | 8650 fluorescence intensity (a.u.)
28 | GGGCCTGTTCACTTTGATGTCATTTTCAACCTTACTAAATCGGAGTCACCTAGTGCAG | 10500 fluorescence intensity (a.u.)
29 | TGGGCCTTGCATGAGTTTGATTGACCCTATGGTCTGCGCACGGAGTCACCTAGTGCAG | 8540 fluorescence intensity (a.u.)
